No constants are given. Whether binding was seen depends on the method and setting. Some entries that bind do so weakly or less than the wild type.

Protein sequences, listed by entry. Tags and fused reporters are not part of them. Lines headed by an entry give the natural chain unless they say otherwise; changes in a name come on top. Chains listed by the source or under a name are the forms on record and can include a tag or linker. Residues count along the entry.
truncated mGlu2 in which the 26 C-terminal amino acids were deleted (HA-ST-mGlu2-Δ846) (P31421, residues 19-846): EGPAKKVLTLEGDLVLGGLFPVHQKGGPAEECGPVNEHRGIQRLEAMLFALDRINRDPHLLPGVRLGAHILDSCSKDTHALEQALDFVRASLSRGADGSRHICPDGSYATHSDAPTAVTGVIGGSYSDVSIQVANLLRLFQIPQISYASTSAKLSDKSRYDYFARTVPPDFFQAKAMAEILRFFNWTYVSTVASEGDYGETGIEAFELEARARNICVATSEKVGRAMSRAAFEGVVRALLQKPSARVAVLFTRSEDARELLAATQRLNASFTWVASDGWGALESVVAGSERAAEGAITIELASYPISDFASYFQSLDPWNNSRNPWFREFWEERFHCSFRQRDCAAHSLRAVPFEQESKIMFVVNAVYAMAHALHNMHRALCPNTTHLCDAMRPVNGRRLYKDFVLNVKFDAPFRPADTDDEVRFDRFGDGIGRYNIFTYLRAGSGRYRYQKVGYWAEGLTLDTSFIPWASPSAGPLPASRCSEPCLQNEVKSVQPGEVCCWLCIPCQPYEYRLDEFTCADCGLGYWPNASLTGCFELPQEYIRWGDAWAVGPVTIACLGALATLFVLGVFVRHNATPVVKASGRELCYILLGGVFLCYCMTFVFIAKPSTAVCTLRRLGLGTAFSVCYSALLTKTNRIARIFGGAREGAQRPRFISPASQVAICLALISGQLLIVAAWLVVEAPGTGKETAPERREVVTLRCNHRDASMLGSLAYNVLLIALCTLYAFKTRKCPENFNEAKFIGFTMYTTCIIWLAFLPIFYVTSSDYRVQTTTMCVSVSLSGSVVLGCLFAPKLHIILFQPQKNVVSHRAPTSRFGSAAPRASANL
ST-mGlu2-V699C (P31421, form named): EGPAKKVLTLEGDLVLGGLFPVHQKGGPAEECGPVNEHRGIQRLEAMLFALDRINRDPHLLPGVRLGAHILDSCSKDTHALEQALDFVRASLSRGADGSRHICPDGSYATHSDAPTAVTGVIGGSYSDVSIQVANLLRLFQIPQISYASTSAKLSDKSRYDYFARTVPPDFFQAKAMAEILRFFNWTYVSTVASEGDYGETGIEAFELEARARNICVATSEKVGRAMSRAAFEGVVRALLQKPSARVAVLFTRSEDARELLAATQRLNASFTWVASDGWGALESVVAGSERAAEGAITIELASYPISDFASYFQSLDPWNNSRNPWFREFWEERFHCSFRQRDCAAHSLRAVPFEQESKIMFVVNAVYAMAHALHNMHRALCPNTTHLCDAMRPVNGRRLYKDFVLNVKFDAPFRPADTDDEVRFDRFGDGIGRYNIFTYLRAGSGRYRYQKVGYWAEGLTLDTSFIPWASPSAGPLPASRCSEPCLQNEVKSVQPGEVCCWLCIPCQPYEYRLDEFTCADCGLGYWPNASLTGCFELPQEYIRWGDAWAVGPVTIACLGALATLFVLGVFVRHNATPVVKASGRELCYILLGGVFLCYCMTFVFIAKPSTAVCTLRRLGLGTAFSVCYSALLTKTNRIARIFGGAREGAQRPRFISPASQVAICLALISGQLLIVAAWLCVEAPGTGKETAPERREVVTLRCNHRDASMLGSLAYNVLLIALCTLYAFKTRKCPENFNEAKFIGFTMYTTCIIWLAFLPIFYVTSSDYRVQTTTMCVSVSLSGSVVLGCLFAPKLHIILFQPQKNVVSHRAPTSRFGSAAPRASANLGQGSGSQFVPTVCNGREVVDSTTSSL

Test [1] addresses ST-mGlu2-V699C (rat) (UniProt P31421). Briefly: two-photon scanning number and brightness (sN&B) fluctuation microscopy; data not shown; neurons, ST-mGlu2-V699C cross-linked with CuP.
The target of test [2] is truncated mGlu2 in which the 26 C-terminal amino acids were deleted (HA-ST-mGlu2-Δ846) (rat) (UniProt P31421). The test is described as follows: two-photon scanning number and brightness (sN&B) fluctuation microscopy; live cultured rat hippocampal neurons, cell-surface SNAP-tagged receptor labelled with Alexa488, imaging buffer pH 7.3, no ligand (basal); numbers for expression of 90-600 subunits/Veff; brightness normalised to monomeric Alexa488.

For test [3] the target is unchanged. The test is described as follows: two-photon scanning number and brightness (sN&B) fluctuation microscopy; live cultured rat hippocampal neurons, SNAP-tag labelled with Alexa488, with agonist and PAM (10 nM LY379268 + 3 μM BINA) during labelling and imaging; numbers for 90-600 subunits/Veff.

Take “ST-mGlu2-V699C (from UniProt P31421 19-872) (receptor)”: the binding entry in test [1] was “binds”.
“truncated mGlu2 in which the 26 C-terminal amino acids were deleted (HA-ST-mGlu2-Δ846) (from UniProt P31421 19-846) (receptor)”: the binding entry in test [2] and in test [3] was “binds” in each case.

The values above are taken from PMC6039492.
